PubChem BioAssay AID1508597 | Cure First | 2020

- Aim: 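Knock-downs altering ovarian cancer cell survival with or without PARP inhibitor rucaparib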 (primary screen)
- System: human ovarian carcinoma lines grown from tumours: OCI-P5x (papillary serous) and OCI-C5x (clear cell)
- Knock-down reagent: siRNA pool against human genes, 1.25 pmol siRNA per well
- Timing: 72 h or 96 h, depending on the cell culture
- Treatment: rucaparib 20 µM (about IC30) or vehicle, present until read-out
- Rucaparib or vehicle: Rucaparib
- Cell line: OCI-P5x (serous)
- Detection: 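ATP luminescence measured at 72 or 96 h according to the culture, then normalised and expressed as percent viability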
- Direction: viability, normalised: higher = more viable cells remaining
- Hit rule: 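Active when normalised viability falls below 80 percent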
- Meaning of the calls: active = viability under 80%; inactive = viability 80% or more
This is an unselected part of the about 2,100 reagents, under one of the conditions tested. 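Calls flag viability under 80% in either arm, not effects specific to rucaparib; the reference for percent is not stated.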 Entries without a mark were called inactive. Some reagents were tested in more than one well and are listed for each. Not given: the 100% reference.

gene symbol,technical replicate,"viability, normalised (%)"
PLK1 (polo like kinase 1),1,28 (active)
PLK1 (polo like kinase 1),2,33 (active)
PLK1 (polo like kinase 1),3,34.5 (active)
MAP2K6 (mitogen-activated protein kinase kinase 6),1,100
MAP2K6 (mitogen-activated protein kinase kinase 6),2,102
MAP2K6 (mitogen-activated protein kinase kinase 6),3,87.2
MED14 (mediator complex subunit 14),1,61.3 (active)
MED14 (mediator complex subunit 14),2,38.3 (active)
MED14 (mediator complex subunit 14),3,55.3 (active)
STK31 (serine/threonine kinase 31),1,85.1
STK31 (serine/threonine kinase 31),1,63.1 (active)
STK31 (serine/threonine kinase 31),2,63 (active)
STK31 (serine/threonine kinase 31),2,87.4
STK31 (serine/threonine kinase 31),3,87.8
STK31 (serine/threonine kinase 31),3,61.7 (active)
MED11 (mediator complex subunit 11),1,39.1 (active)
MED11 (mediator complex subunit 11),2,43.8 (active)
MED11 (mediator complex subunit 11),3,58.9 (active)
TBP (TATA-box binding protein),1,76.1 (active)
TBP (TATA-box binding protein),2,81.3
TBP (TATA-box binding protein),3,93.6
ING1 (inhibitor of growth family member 1),1,71.9 (active)
ING1 (inhibitor of growth family member 1),2,68.6 (active)
ING1 (inhibitor of growth family member 1),3,67 (active)
DDR1 (discoidin domain receptor tyrosine kinase 1),1,93
DDR1 (discoidin domain receptor tyrosine kinase 1),2,80.4
DDR1 (discoidin domain receptor tyrosine kinase 1),3,80.8
AK7 (adenylate kinase 7),1,84.9
AK7 (adenylate kinase 7),2,87.4
AK7 (adenylate kinase 7),3,59.6 (active)
CENPV (centromere protein V),1,65.8 (active)
CENPV (centromere protein V),2,59 (active)
CENPV (centromere protein V),3,60.9 (active)
MACROD2 (mono-ADP ribosylhydrolase 2),1,54 (active)
MACROD2 (mono-ADP ribosylhydrolase 2),2,50.2 (active)
MACROD2 (mono-ADP ribosylhydrolase 2),3,55.3 (active)
CETN2 (centrin 2),1,47.8 (active)
CETN2 (centrin 2),2,53.7 (active)
CETN2 (centrin 2),3,44.8 (active)
MAP4K4 (mitogen-activated protein kinase kinase kinase kinase 4),1,119
MAP4K4 (mitogen-activated protein kinase kinase kinase kinase 4),2,112
MAP4K4 (mitogen-activated protein kinase kinase kinase kinase 4),3,109
PAK4 (p21 (RAC1) activated kinase 4),1,103
PAK4 (p21 (RAC1) activated kinase 4),2,81
PAK4 (p21 (RAC1) activated kinase 4),3,97.3
MLLT10 (MLLT10 histone lysine methyltransferase DOT1L cofactor),1,46.1 (active)
MLLT10 (MLLT10 histone lysine methyltransferase DOT1L cofactor),2,49.6 (active)
MLLT10 (MLLT10 histone lysine methyltransferase DOT1L cofactor),3,46.8 (active)
EZH1 (enhancer of zeste 1 polycomb repressive complex 2 subunit),1,52.7 (active)
EZH1 (enhancer of zeste 1 polycomb repressive complex 2 subunit),2,52.6 (active)
EZH1 (enhancer of zeste 1 polycomb repressive complex 2 subunit),3,48.3 (active)
CAMK2A (calcium/calmodulin dependent protein kinase II alpha),1,113
CAMK2A (calcium/calmodulin dependent protein kinase II alpha),2,96.2
CAMK2A (calcium/calmodulin dependent protein kinase II alpha),3,104
DHX36 (DEAH-box helicase 36),1,53 (active)
DHX36 (DEAH-box helicase 36),2,61.8 (active)
DHX36 (DEAH-box helicase 36),3,66.2 (active)
KAT8 (lysine acetyltransferase 8),1,49.5 (active)
KAT8 (lysine acetyltransferase 8),2,60.7 (active)
KAT8 (lysine acetyltransferase 8),3,56.6 (active)
GADD45A (growth arrest and DNA damage inducible alpha),1,79.7 (active)
GADD45A (growth arrest and DNA damage inducible alpha),2,81.1
GADD45A (growth arrest and DNA damage inducible alpha),3,78.2 (active)
CDKL2 (cyclin dependent kinase like 2),1,121
CDKL2 (cyclin dependent kinase like 2),2,68.9 (active)
CDKL2 (cyclin dependent kinase like 2),3,114
HECTD3 (HECT domain E3 ubiquitin protein ligase 3),1,85.5
HECTD3 (HECT domain E3 ubiquitin protein ligase 3),2,92.5
HECTD3 (HECT domain E3 ubiquitin protein ligase 3),3,87.6
XRCC3 (X-ray repair cross complementing 3),1,92
XRCC3 (X-ray repair cross complementing 3),2,64.6 (active)
XRCC3 (X-ray repair cross complementing 3),3,79.7 (active)
TRIM68 (tripartite motif containing 68),1,51.1 (active)
TRIM68 (tripartite motif containing 68),2,61.2 (active)
TRIM68 (tripartite motif containing 68),3,51.8 (active)

Quoted from above (10 entries):
gene symbol,technical replicate,"viability, normalised (%)"
MED11 (mediator complex subunit 11),2,43.8 (active)
MED11 (mediator complex subunit 11),3,58.9 (active)
TBP (TATA-box binding protein),1,76.1 (active)
TBP (TATA-box binding protein),2,81.3
TBP (TATA-box binding protein),3,93.6
ING1 (inhibitor of growth family member 1),1,71.9 (active)
ING1 (inhibitor of growth family member 1),2,68.6 (active)
ING1 (inhibitor of growth family member 1),3,67 (active)
DDR1 (discoidin domain receptor tyrosine kinase 1),1,93
DDR1 (discoidin domain receptor tyrosine kinase 1),2,80.4
